IC50 data for one molecule are collected here from patent US8580829B2 (Boehringer Ingelheim International GmbH, priority 2010, dated 2013).

Sequences of proteins named here, by UniProt entry; tags and fusion partners are left off.
UniProt P20292, whole entry: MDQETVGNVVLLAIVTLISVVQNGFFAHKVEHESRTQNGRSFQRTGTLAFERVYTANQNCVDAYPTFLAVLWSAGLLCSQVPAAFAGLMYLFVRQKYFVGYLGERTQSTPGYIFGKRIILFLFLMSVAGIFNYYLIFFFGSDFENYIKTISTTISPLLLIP

A word on the IC50: it is the point on the concentration scale where inhibition reaches its midpoint.

SMILES strings stand for the structures. The match of structure and compound is tentative.

In assay [1] the target is recombinant human FLAP protein (Homo sapiens, UniProt P20292). The assay can be described thus: FLAP binding assay (Scintillation Proximity Assay, displacement of [125I]L-691,831). The conditions noted are these: read-out: FLAP SPA IC50; recombinant human FLAP membranes, [125I]L-691,831 probe. A general note: Scintillation proximity formats need no separation of bound from free tracer.

Assay [2] has as its system synthesis of LTB4 in human whole blood. The assay can be described thus: human whole blood LTB4 production inhibition assay. In kind it is cell-based. The conditions noted are these: read-out: hWB LTB4 IC50; heparinized human whole blood, calcimycin 20 μM. How it is done:
Compounds are additionally tested in a human whole blood assay to determine their ability to inhibit the synthesis of LTB4 in a cellular system. Compounds are combined with heparinized human whole blood and incubated for 15 minutes at 37° C. Calcimycin (20 μM final, prepared in phosphate-buffered saline, pH 7.4) is then added and the mixture is incubated for another 30 minutes at 37° C. The samples are centrifuged for 5 min at low speed (1500×g) and the plasma layer is removed. Plasma LTB4 concentrations are then measured using an antibody-based homogenous time-resolved fluorescence method (CisBio, Bedford, Mass.).

Turning to `Nc1ncc(-c2ccc(C3(c4noc(-c5csc(N6CCNCC6)n5)n4)CCC3)cc2)cn1` [Example 266, 5-(4-{1-[5-(2-Piperazin-1-yl-thiazol-4-yl)-[1,2,4]oxadiazol-3-yl]-cyclobutyl}-phenyl)-pyrimidin-2-ylamine], the IC50 in assay [1] came out at 4 nM; in assay [2], 60 nM.
